# Library screen at single concentrations

By UniProt entry, the sequences of proteins in these tests, tags left out. Residues count along the entry.
UniProt P9WNZ1, whole entry: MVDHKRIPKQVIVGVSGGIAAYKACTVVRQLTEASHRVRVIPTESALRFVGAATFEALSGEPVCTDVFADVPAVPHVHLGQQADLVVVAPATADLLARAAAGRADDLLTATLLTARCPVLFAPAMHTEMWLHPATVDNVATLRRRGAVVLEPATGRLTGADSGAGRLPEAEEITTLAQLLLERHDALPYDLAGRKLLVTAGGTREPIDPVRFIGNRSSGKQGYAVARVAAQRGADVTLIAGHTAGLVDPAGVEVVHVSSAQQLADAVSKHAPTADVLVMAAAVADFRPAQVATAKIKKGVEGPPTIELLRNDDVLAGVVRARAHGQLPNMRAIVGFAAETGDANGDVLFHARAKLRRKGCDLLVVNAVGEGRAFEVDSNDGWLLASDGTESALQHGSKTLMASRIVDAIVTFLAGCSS
UniProt I6X8D2, whole entry: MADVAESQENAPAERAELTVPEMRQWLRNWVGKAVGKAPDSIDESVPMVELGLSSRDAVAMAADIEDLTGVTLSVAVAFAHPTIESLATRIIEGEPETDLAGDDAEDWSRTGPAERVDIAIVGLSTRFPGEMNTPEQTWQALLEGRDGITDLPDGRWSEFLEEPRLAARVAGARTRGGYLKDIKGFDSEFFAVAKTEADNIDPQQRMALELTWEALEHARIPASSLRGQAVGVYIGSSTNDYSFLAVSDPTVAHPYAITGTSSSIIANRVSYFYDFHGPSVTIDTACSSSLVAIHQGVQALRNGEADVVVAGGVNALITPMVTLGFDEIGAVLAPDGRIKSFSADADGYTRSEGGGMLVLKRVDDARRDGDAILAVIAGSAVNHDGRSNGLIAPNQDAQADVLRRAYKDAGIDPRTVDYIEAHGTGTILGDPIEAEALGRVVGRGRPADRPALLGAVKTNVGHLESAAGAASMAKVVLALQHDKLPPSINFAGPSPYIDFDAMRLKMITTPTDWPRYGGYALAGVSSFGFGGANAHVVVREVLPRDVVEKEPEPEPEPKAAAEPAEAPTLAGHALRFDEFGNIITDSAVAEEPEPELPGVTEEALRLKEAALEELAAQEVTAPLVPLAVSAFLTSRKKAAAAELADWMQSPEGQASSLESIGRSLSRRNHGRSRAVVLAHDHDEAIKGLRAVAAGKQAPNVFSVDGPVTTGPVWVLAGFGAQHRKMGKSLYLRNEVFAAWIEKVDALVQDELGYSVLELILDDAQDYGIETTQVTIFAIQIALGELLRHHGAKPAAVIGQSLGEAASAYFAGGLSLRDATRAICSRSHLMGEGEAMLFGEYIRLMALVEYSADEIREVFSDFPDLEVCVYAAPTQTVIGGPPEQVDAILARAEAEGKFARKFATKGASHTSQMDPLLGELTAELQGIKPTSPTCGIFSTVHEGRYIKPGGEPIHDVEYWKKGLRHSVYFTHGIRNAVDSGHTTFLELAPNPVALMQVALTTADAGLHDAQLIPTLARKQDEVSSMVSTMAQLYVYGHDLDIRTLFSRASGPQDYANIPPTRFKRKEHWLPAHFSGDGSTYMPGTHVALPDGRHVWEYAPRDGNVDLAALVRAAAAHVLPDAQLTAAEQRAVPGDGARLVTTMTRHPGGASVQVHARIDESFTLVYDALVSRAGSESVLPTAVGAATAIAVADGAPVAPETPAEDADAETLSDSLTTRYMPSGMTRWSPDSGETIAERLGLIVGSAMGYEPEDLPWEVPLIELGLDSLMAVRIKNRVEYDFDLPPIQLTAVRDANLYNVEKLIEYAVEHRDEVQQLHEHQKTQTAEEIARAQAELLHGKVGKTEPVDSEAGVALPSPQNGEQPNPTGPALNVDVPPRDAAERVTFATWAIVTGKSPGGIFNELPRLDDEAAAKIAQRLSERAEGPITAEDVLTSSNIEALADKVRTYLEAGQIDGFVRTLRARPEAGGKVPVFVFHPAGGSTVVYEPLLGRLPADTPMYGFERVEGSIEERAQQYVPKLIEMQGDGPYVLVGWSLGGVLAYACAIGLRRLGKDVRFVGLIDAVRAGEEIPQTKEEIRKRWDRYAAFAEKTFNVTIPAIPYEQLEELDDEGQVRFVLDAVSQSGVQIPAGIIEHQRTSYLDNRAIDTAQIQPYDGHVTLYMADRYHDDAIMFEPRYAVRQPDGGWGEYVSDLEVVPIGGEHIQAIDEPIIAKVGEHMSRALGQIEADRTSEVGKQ
UniProt P9WPC5, whole entry: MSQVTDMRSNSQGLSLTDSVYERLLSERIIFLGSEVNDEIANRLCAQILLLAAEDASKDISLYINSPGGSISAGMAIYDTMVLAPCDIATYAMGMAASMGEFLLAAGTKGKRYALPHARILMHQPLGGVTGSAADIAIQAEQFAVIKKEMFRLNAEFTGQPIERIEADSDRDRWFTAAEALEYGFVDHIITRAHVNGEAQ
UniProt P9WPC3, whole entry partner: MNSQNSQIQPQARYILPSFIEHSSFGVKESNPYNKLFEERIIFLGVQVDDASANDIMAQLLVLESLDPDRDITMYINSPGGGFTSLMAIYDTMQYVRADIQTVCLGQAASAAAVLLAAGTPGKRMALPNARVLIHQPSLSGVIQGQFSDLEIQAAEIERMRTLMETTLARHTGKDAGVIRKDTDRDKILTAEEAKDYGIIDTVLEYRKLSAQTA
UniProt A4I591, 1-473: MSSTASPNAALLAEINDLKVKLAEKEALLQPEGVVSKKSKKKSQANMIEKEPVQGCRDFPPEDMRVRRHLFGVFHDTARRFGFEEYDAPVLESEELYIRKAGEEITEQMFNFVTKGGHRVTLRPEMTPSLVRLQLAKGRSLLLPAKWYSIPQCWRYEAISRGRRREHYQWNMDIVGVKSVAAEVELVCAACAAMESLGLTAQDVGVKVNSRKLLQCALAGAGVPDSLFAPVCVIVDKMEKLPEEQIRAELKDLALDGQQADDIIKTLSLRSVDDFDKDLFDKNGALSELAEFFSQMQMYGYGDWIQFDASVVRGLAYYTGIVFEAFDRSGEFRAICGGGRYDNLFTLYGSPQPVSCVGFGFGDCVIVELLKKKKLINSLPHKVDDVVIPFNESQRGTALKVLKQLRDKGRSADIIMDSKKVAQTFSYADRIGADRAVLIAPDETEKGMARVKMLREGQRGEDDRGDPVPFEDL
UniProt P9WFT3, whole entry: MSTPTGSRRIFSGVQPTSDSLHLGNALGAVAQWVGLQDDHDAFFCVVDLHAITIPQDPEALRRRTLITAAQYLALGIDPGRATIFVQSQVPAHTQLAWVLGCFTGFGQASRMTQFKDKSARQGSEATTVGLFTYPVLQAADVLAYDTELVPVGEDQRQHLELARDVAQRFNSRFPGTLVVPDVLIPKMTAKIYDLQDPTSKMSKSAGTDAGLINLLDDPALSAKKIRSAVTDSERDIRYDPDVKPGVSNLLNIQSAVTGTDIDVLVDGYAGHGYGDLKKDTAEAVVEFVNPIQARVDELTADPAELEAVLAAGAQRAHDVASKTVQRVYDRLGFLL

CoaBC: 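Coenzyme A biosynthesis protein CoaBC, Mycobacterium tuberculosis (UniProt P9WNZ1). Enzyme assay of CoaBC with a phosphate dye (Biomol Green) read at 650 nm. Concentration: 30 µM. Higher reads as stronger inhibition, judged from the few compounds that gave an IC50. Most strong results did not repeat in a second test. About 67,000 compounds were tested under these conditions; 0.06% (about 40) showed 50% or more at least once.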
Pks13 thioesterase: 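Enzyme assay of the thioesterase domain of polyketide synthase 13; the read-out is not stated. Target: Polyketide synthase Pks13, Mycobacterium tuberculosis (UniProt I6X8D2). Concentration: 30 µM. Higher reads as stronger inhibition (inferred from which compounds were picked for retests). Of about 67,000 compounds tested this way, about 300 (0.46%) reached 50% or more in at least one test.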
ClpP1P2: 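ClpP1P2, Mycobacterium tuberculosis (UniProt P9WPC5 and UniProt P9WPC3). Protease assay of ClpP1P2, read by the AMC dye that it sets free. Compounds at 50 µM. Direction is inferred from only a few compounds that gave an IC50; most scored high, so higher reads as stronger inhibition. Most other retested compounds had strongly negative values. About 69,000 compounds were tested under these conditions; 0.015% (about 10) showed 50% or more at least once.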
LiHisRS: 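Enzyme assay of histidyl-tRNA synthetase; the read-out is not stated. Target: Histidine-tRNA ligase, Leishmania infantum (UniProt A4I591). Concentration: 30 µM. The record gives no direction; compounds that gave an IC50 in retests scored well above the rest, so higher reads as stronger inhibition. The assay is labelled LdHisRS but filed under L. infantum. About 69,000 compounds were tested under these conditions; 0.6% (about 410) showed 50% or more at least once.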
MtTrpRS: 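Enzyme assay of tryptophanyl-tRNA synthetase; the read-out is not stated. Target: Tryptophan-tRNA ligase, Mycobacterium tuberculosis (UniProt P9WFT3). Compounds at 10 µM. Direction is not recorded; retested compounds ran higher, which suggests that high means inhibition. About 65,000 compounds were tested under these conditions; 0.098% (about 64) showed 50% or more at least once.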

Results are given as percent effect. How 0% and 100% were set is not recorded. Most values in the screen are low, and negative values occur. This is an unselected part of the compounds tested.

O=C(NC[C@H]1COCc2nc3cc(F)ccc3n21)c1cccnc1 gave CoaBC: 12.58%; Pks13 thioesterase: -21.18%; ClpP1P2: 6.218%; LiHisRS: 17.57%; MtTrpRS: 1.442%. O=c1cc(Cn2cncn2)nc2n1CCCN(Cc1ccsc1)C2 gave CoaBC: -2.005%; Pks13 thioesterase: 4.886%; ClpP1P2: -17.7%; LiHisRS: 38.46%; MtTrpRS: 4.149%. With O=C(C1CCCC1)N1C[C@@H](c2ccsc2)[C@@H]2CN(C3CCCC3)CC[C@@H]21 the screen gave CoaBC: 2.564%; Pks13 thioesterase: 14.04%; ClpP1P2: -18.87%; LiHisRS: 14.18%; MtTrpRS: -3.825%. Cc1ccc(C(=O)N[C@H]2CN(CCO)C[C@@H]2C2CC2)cc1Cl read CoaBC: -3.909%; Pks13 thioesterase: 32.8%; ClpP1P2: -5.494%; LiHisRS: -1.075%; MtTrpRS: -3.722%.

For CC(C)(C#N)C(=O)Nc1nccn1Cc1ccc(Br)cc1 the result was CoaBC: 4%; Pks13 thioesterase: 0.8049%; ClpP1P2: 3.758%; LiHisRS: 2.564%; MtTrpRS: 19.05%. Result for Cc1cccc(CN2CCN3C[C@H](Oc4cccnc4)C[C@H]3C2)n1 was CoaBC: 4.56%; Pks13 thioesterase: -21.33%; ClpP1P2: 5.646%; LiHisRS: 25.71%; MtTrpRS: 1.139%. With CC(c1ccco1)N(C(=O)c1cccc(C#N)c1)C1CC1 (centres unmarked) the screen gave CoaBC: -0.6452%; Pks13 thioesterase: -14.92%; ClpP1P2: -8.87%; LiHisRS: 17.11%; MtTrpRS: 0.8227%. For CNC(=O)c1ccc(-c2ccc(CNS(=O)(=O)N(C)C)cc2)nc1C the result was CoaBC: -5.825%; Pks13 thioesterase: 12.36%; ClpP1P2: -25.03%; LiHisRS: 5.714%; MtTrpRS: -9.514%.

c1ccc(C2CCCN2C2CCSCC2)nc1 (centres unmarked) gave CoaBC: 14.04%; Pks13 thioesterase: -31.66%; ClpP1P2: 0.9222%; LiHisRS: 11.43%; MtTrpRS: -1.008%. COCCC(=O)N1CC2(CCN(Cc3ccncc3)CC2)C1 gave CoaBC: 2.596%; Pks13 thioesterase: -17.51%; ClpP1P2: -1.08%; LiHisRS: 17%; MtTrpRS: 0.834%. CN(Cc1noc(C2CC2)n1)C1CCN(Cc2ccccc2C#N)C1 (centres unmarked) gave CoaBC: -2.558%; Pks13 thioesterase: -27.57%; ClpP1P2: -83.94%; LiHisRS: 12.84%; MtTrpRS: 1.56%. NC(=O)c1cnn2c1NCC(CNCCOc1ccccc1)C2 (centres unmarked) gave CoaBC: -0.3802%; Pks13 thioesterase: -5.864%; ClpP1P2: -27.78%; LiHisRS: 19.64%; MtTrpRS: -2.448%.

Cc1cccc(CN2C[C@@H]3COC[C@]3(CNC(=O)C3CC3)C2)c1 gave CoaBC: 4.332%; Pks13 thioesterase: -12.88%; ClpP1P2: -9.292%; LiHisRS: 11.88%. Result for CCN1CCn2c(C)cnc2C12CCN(C(=O)Cc1ccccc1)CC2 was CoaBC: 7.765%; Pks13 thioesterase: -32.8%; ClpP1P2: -4.494%; LiHisRS: 24.77%; MtTrpRS: 8.624%. For O=C(N1CCCO1)[C@@]12CCO[C@@H]1CCN(Cc1cccnc1)C2 the result was CoaBC: -12.7%; Pks13 thioesterase: -20.64%; ClpP1P2: -15.39%; LiHisRS: 5.556%; MtTrpRS: 2.394%. Cc1ncsc1C(=O)N1CCCC(n2cncn2)C1 (centres unmarked) read CoaBC: -2.36%; Pks13 thioesterase: 3.047%; ClpP1P2: -10.66%; LiHisRS: 12.28%; MtTrpRS: 2.035%.

O=C(COCC(F)(F)F)NC1CCCc2cc(OC(F)F)ccc21 (centres unmarked) read CoaBC: 8.824%; Pks13 thioesterase: -34.17%; ClpP1P2: -4.117%; LiHisRS: 9.402%; MtTrpRS: -7.376%. With CN1CCN(c2cc(CNC(=O)c3ccc(=O)[nH]n3)ccn2)CC1 the screen gave CoaBC: 2.332%; Pks13 thioesterase: 2.412%; ClpP1P2: 9.396%; LiHisRS: 4.255%; MtTrpRS: -2.004%. Cc1nn(-c2ccccn2)c(C)c1[C@@H]1C=C[C@@H](NC(=O)CCC(=O)O)C1 gave CoaBC: 7.449%; Pks13 thioesterase: -32.41%; ClpP1P2: -3.264%; LiHisRS: 19.44%; MtTrpRS: -3.389%. CCN(CC)C(=O)CN1CCc2c(nc(C3CCNCC3)nc2NC)C1 read CoaBC: -2.331%; Pks13 thioesterase: 3.313%; ClpP1P2: 5.546%; LiHisRS: 11.35%; MtTrpRS: -6.368%.

O=C(Cc1ccc(F)cc1)NCCNc1cc(N2CCCC2)ncn1 gave CoaBC: -3.398%; Pks13 thioesterase: -4.524%; ClpP1P2: -8.658%; LiHisRS: 11.9%; MtTrpRS: -0.432%. CCc1ccc(CN2CCN(C)c3ncccc3C2)o1 gave CoaBC: -0.3861%; Pks13 thioesterase: -12.73%; ClpP1P2: -0.9697%; LiHisRS: 3.922%; MtTrpRS: 14.09%. Cc1c(Cc2ccccc2)c(O)nc2nc(N3CCOCC3)nn12 read CoaBC: 4.673%; Pks13 thioesterase: -55.29%; ClpP1P2: 1.558%; LiHisRS: 2.655%; MtTrpRS: -1.248%. CCS(=O)(=O)c1ccc(N2CCC(NC(=O)CC3CCCC3)CC2)cc1 gave CoaBC: 1.873%; Pks13 thioesterase: -12.37%; ClpP1P2: -6.86%; LiHisRS: 14.88%; MtTrpRS: 1.407%.

CN1C(=O)COc2cc(NC(=O)CCc3nc4cccnc4[nH]3)ccc21 gave CoaBC: 10.16%; Pks13 thioesterase: -13.63%; ClpP1P2: 10.86%; LiHisRS: 23.6%; MtTrpRS: -0.0809%. Cc1nn(C)c(N(C)C)c1CNCCCNS(C)(=O)=O gave CoaBC: 1.053%; Pks13 thioesterase: -23.61%; ClpP1P2: -13.35%; LiHisRS: 8.333%; MtTrpRS: 24.06%. COCCN(C)C[C@@H]1CN(C(=O)c2ccc(O)c(Cl)c2)C[C@@H]1CO read CoaBC: -0.8424%; Pks13 thioesterase: 2.46%; ClpP1P2: -7.275%; LiHisRS: -17.98%; MtTrpRS: -1.761%. For c1csc(-c2noc(CN3CCc4c(ncn4C4CC4)C3)n2)c1 the result was CoaBC: -1.945%; Pks13 thioesterase: 18.49%; ClpP1P2: 2.347%; LiHisRS: 17.46%; MtTrpRS: 0.7498%.

For CN(C)c1ccc(NC(=O)N2CCCCC2c2ncc[nH]2)cn1 (centres unmarked) the result was CoaBC: 5.579%; Pks13 thioesterase: -12.62%; ClpP1P2: -1.924%; LiHisRS: 2.74%; MtTrpRS: 6.762%.

3 of the entries, repeated:

structure	CoaBC	Pks13 thioesterase	ClpP1P2	LiHisRS	MtTrpRS
O=C(N1CCCO1)[C@@]12CCO[C@@H]1CCN(Cc1cccnc1)C2	-12.7%	-20.64%	-15.39%	5.556%	2.394%
Cc1c(Cc2ccccc2)c(O)nc2nc(N3CCOCC3)nn12	4.673%	-55.29%	1.558%	2.655%	-1.248%
CCc1ccc(CN2CCN(C)c3ncccc3C2)o1	-0.3861%	-12.73%	-0.9697%	3.922%	14.09%

The values are deposited in ChEMBL (CHEMBL3988442, “University of Dundee, Small-Polar-MMV Screening Library” (2021)).